Data as given in PubChem BioAssay AID504467 (National Center for Advancing Translational Sciences (NCATS), 2011).
The whole screen tested about 330,000 compounds, of which about 7,700 (2.3%) were called active. The shares of active, inactive and inconclusive entries below differ from those in the screen. Calls follow the shape of the dose curve; as a rule, active = well fitted inhibition curve with a large enough effect; inconclusive = small, poorly fitted or top-dose-only effect, or effect the other way; inactive = flat fitted curve, though single readings scatter. Potencies beside an inconclusive call are fits to weak or partial responses and may not hold up.

Experiment: qHTS screen for small molecules that inhibit ELG1-dependent DNA repair in human embryonic kidney (HEK293T) cells expressing luciferase-tagged ELG1; also: nearly all actives have a fitted effect of over 55% in size
Details: HEK293T ELG1-luciferase reporter, luminescence, 16 h, DNA damage induced by 5-fluorouridine; series mostly up to 46.1 µM
In short: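 Overnight (16 hr) co-exposure of 2,000 cells/well to 5-fluorouridine and compound at 37 °C preceded detection. Luciferase was quantified via ONE-Glo luminescence; loss of signal denotes inhibition.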
Potency is read from the fitted curve at half-maximal effect.

SMILES | Potency
CCOc1ccc(N(CC(=O)N2CCOCC2)S(=O)(=O)c2ccc(Cl)cc2)cc1 | inactive
O=C(Nc1ccc(N2CCOCC2)nc1)c1ccc(F)cc1 | inconclusive: 16.4 µM [activator, partial curve]
CCOC(=O)C1(CCOc2ccccc2)CCN(Cc2ccc(OCCO)cc2)CC1 | inconclusive: 11.2 µM [inhibitor, partial curve, poor fit]
CC(=O)c1ccc(S(=O)(=O)NC2CCCCCCC2)cc1 | inconclusive: 8.2 µM [inhibitor, partial curve]
Cc1nc2c(C(=O)NCc3ccc4c(c3)OCO4)cnn2c(C)c1Cc1ccc(F)cc1Cl | active: 20.6 µM
Cc1cccc(C(=O)NNC(=O)C2CC2)c1 | inactive
CCCCNc1c(-c2ccc(SC3CCCCC3)c(OC)c2)nc2ccc(C)cn12 | inconclusive: 16.4 µM [inhibitor, partial curve]
CC(C)C(=O)Nc1cc(S(=O)(=O)Nc2cccc(Cl)c2)ccc1Cl | inconclusive: 0.411 µM [inhibitor, partial curve]
CC1CC(C)CN(c2ncnc3c2cnn3-c2ccc(Cl)cc2)C1 (stereo not drawn) | inconclusive: 2.06 µM [activator, full curve]
Cc1c(NC(=O)/C(C#N)=C/c2ccccc2)c(=O)n(-c2ccccc2)n1C | inactive
COc1ccc2c(c1OC)C(=O)N1C2SC[C@H]1C(=O)NC1CCCC1 (stereo partly drawn) | inactive
COc1cc(NC(=O)Nc2cccc(C(C)=O)c2)cc(OC)c1OC | inconclusive: 25.9 µM [inhibitor, single point]
CCn1ncc(/C=N/N=C2\CCC3C4CCc5cc(O)ccc5C4CCC23C)c1C (stereo not drawn) | inconclusive: 29.1 µM [inhibitor, single point]
COc1ccc(-c2sc3ccccc3c2/C=C/c2ccncc2)cc1 | inconclusive: 29.1 µM [inhibitor, single point]
O=C(O)CCCC(=O)N1CCN(c2cccc(Cl)c2)CC1 | inactive
Cc1cc(NC(=O)COC(=O)c2ccc(S(=O)(=O)N3CCCc4ccccc43)cc2)no1 | inconclusive: 3.98 µM [inhibitor, partial curve, poor fit]
NC(=O)c1c(NC(=O)c2ccccc2)sc2c1CCCC2 | inconclusive: 5.17 µM [activator, partial curve, poor fit]
CCOC(=O)c1c(NC(=O)Cc2cccs2)sc(C(=O)NC2CCCC2)c1C | inactive
Cc1nc(C)c(-c2ccc(SCC(=O)Nc3ccc(C)c(Cl)c3)nn2)s1 | inactive
COc1ccc(S(=O)(=O)N2CCCC(C(=O)Nc3cccnc3)C2)cc1Cl (stereo not drawn) | active: 23.1 µM
Cc1ccc(S(=O)(=O)NC(C)(C)CSc2nnc(Nc3ccccc3)s2)cc1 | active: 23.1 µM
O=C(NC12CC3CC(CC(C3)C1)C2)C1CC(=O)N(c2ccc(Br)cc2)C1 (stereo not drawn) | inconclusive: 18.4 µM [inhibitor, single point]
Cc1ccc(-c2noc(CCC(=O)NCCCN3CCN(c4ccc(F)cc4)CC3)n2)cc1 | inconclusive: 20.6 µM [inhibitor, single point]

19 neighbouring entries already listed, for reference:
SMILES | Potency
O=C(Nc1ccc(N2CCOCC2)nc1)c1ccc(F)cc1 | inconclusive: 16.4 µM [activator, partial curve]
CCOC(=O)C1(CCOc2ccccc2)CCN(Cc2ccc(OCCO)cc2)CC1 | inconclusive: 11.2 µM [inhibitor, partial curve, poor fit]
CC(=O)c1ccc(S(=O)(=O)NC2CCCCCCC2)cc1 | inconclusive: 8.2 µM [inhibitor, partial curve]
Cc1nc2c(C(=O)NCc3ccc4c(c3)OCO4)cnn2c(C)c1Cc1ccc(F)cc1Cl | active: 20.6 µM
Cc1cccc(C(=O)NNC(=O)C2CC2)c1 | inactive
CCCCNc1c(-c2ccc(SC3CCCCC3)c(OC)c2)nc2ccc(C)cn12 | inconclusive: 16.4 µM [inhibitor, partial curve]
CC(C)C(=O)Nc1cc(S(=O)(=O)Nc2cccc(Cl)c2)ccc1Cl | inconclusive: 0.411 µM [inhibitor, partial curve]
CC1CC(C)CN(c2ncnc3c2cnn3-c2ccc(Cl)cc2)C1 (stereo not drawn) | inconclusive: 2.06 µM [activator, full curve]
Cc1c(NC(=O)/C(C#N)=C/c2ccccc2)c(=O)n(-c2ccccc2)n1C | inactive
COc1ccc2c(c1OC)C(=O)N1C2SC[C@H]1C(=O)NC1CCCC1 (stereo partly drawn) | inactive
COc1cc(NC(=O)Nc2cccc(C(C)=O)c2)cc(OC)c1OC | inconclusive: 25.9 µM [inhibitor, single point]
CCn1ncc(/C=N/N=C2\CCC3C4CCc5cc(O)ccc5C4CCC23C)c1C (stereo not drawn) | inconclusive: 29.1 µM [inhibitor, single point]
COc1ccc(-c2sc3ccccc3c2/C=C/c2ccncc2)cc1 | inconclusive: 29.1 µM [inhibitor, single point]
O=C(O)CCCC(=O)N1CCN(c2cccc(Cl)c2)CC1 | inactive
Cc1cc(NC(=O)COC(=O)c2ccc(S(=O)(=O)N3CCCc4ccccc43)cc2)no1 | inconclusive: 3.98 µM [inhibitor, partial curve, poor fit]
NC(=O)c1c(NC(=O)c2ccccc2)sc2c1CCCC2 | inconclusive: 5.17 µM [activator, partial curve, poor fit]
CCOC(=O)c1c(NC(=O)Cc2cccs2)sc(C(=O)NC2CCCC2)c1C | inactive
Cc1nc(C)c(-c2ccc(SCC(=O)Nc3ccc(C)c(Cl)c3)nn2)s1 | inactive
COc1ccc(S(=O)(=O)N2CCCC(C(=O)Nc3cccnc3)C2)cc1Cl (stereo not drawn) | active: 23.1 µM

Additional structures follow:

SMILES | Potency
CC(C(=O)NCCc1nc2ccccc2[nH]1)n1cc([N+](=O)[O-])cn1 (stereo not drawn) | inconclusive: 18.3 µM [activator, partial curve, poor fit]
CC(C)[C@H](NC(=O)c1ccc(Cl)cc1Cl)C(=O)NNc1cccc(C(=O)O)c1 | inconclusive: 18.3 µM [activator, single point]
COc1ccc(-c2cc(C(F)(F)F)n3ncc(C(=O)O)c3n2)cc1OC | inconclusive: 4.61 µM [inhibitor, partial curve]
CCNc1nc(NC(C)(C)C)nc(N2CCCC2)n1 | inactive
CCN(CC)c1ccc(-c2n[nH]c(=S)n2-c2ccccc2)cc1 | inconclusive: 7.3 µM [inhibitor, partial curve, poor fit]
CCOC(=O)C1CCN(S(=O)(=O)c2c(Cl)ccc3nonc23)CC1 | inconclusive: 29.1 µM [inhibitor, single point]
N#CC1=C(SCc2ccccc2)NC(=O)CC1c1cccc(O)c1 (stereo not drawn) | inactive
CCOCCCNC(=S)N1CCCN(c2nc3cc(C)ccc3cc2C#N)CC1 | inconclusive: 25.9 µM [inhibitor, single point]
O=C(NCc1cccnc1)NC1(C(F)(F)F)Oc2ccc(Cl)cc2O1 (stereo not drawn) | inconclusive: 20.6 µM [inhibitor, single point]
O=C(N/N=C\c1cc(Cl)ccc1O)c1ccc(S(=O)(=O)N2CCCCC2)cc1 | inconclusive: 1.64 µM [inhibitor, partial curve]
CCOC(=O)CC(=O)CSc1ncnc2c1nnn2-c1ccccc1 | inconclusive: 29.1 µM [activator, single point]
Cc1ccc(C)c(NC(=O)COC(=O)c2ccc3c(c2)OCCO3)c1 | inconclusive: 20.6 µM [activator, single point]
COc1ccc(C(=O)Nc2cc(C)on2)cc1 | inconclusive: 5.17 µM [activator, partial curve]
NC(=O)C(C(=O)/C=C/c1ccc(Cl)cc1)=C1SCCS1 | inconclusive: 29.1 µM [inhibitor, single point]
COc1ccccc1NS(=O)(=O)c1cc(NC(=O)C2CCCC2)ccc1N1CCOCC1 | inactive
COc1ccc(O)c(/C=N/NC(=O)CCC(=O)Nc2cccc(C)c2)c1 | inconclusive: 23.1 µM [inhibitor, single point]
COc1cc(C(=O)OCc2cc3ccccc3[nH]c2=O)cc(OC)c1OC | inconclusive: 2.91 µM [inhibitor, partial curve]
CCOc1cc(NC(=O)c2ccco2)c(OCC)cc1NC(=O)COc1ccccc1 | inconclusive: 1.84 µM [inhibitor, partial curve, poor fit]
CC(C)(C)c1cc(NC(=O)c2cccnc2)no1 | inconclusive: 20.6 µM [activator, partial curve]
O=[N+]([O-])c1cccc(-c2nnc(-c3ccccc3)o2)c1 | inconclusive: 9.2 µM [activator, partial curve]
CCC(=O)N1CCN(c2ccc(Cl)cc2NC(=O)Cc2ccc(Cl)cc2)CC1 | inconclusive: 29.1 µM [inhibitor, single point]
Cc1cc(NC(=O)NC(=O)c2ccccc2)no1 | inconclusive: 18.3 µM [activator, partial curve]
COc1ccc(C2=NS(=O)(=O)N(C)C(C(=O)NC3CCCCC3)=C2)cc1 | inactive

SMILES | Potency
Cc1cc(C)cc(N(C(=O)CNS(=O)(=O)c2ccccc2)C(C(=O)NCc2ccccc2)c2ccc(C)o2)c1 (stereo not drawn) | inconclusive: 25.9 µM [inhibitor, single point]
CN(CC(=O)Nc1ccc(Cl)c(C(F)(F)F)c1)C(=O)CCC(=O)c1ccccc1 | inconclusive: 18.3 µM [inhibitor, single point]
CN1CCN(C(=O)Cn2ncc3c([nH]c4ccccc43)c2=O)CC1 | inactive
COc1cccc(C(C[N+](=O)[O-])c2c(C)[nH]n(-c3ccccc3)c2=O)c1 (stereo not drawn) | inconclusive: 18.3 µM [activator, single point]
CC(C)Oc1ccc(C(=O)OCC(=O)NCCNC(=O)COC(=O)c2ccc(OC(C)C)cc2)cc1 | inconclusive: 23.1 µM [inhibitor, single point]
O=C(Nc1cc(S(=O)(=O)N2CCOCC2)ccc1N1CCOCC1)c1cc2c(s1)CCC2 | inconclusive: 23.1 µM [inhibitor, single point]
Cn1c(=O)c(C(=O)NC2CCCCCCC2)c(O)c2ccccc21 | inactive
Cc1c(CCC(=O)NCCC(=O)O)c(=O)oc2c(C)c3oc4c(c3cc12)CCCC4 | inactive
O=C(c1ccc(Cl)cc1)c1ccc(OCC(O)CN2CCOCC2)cc1 (stereo not drawn) | inconclusive: 11.6 µM [inhibitor, partial curve, poor fit]
NC(=S)n1[nH]c(-c2ccc([N+](=O)[O-])cc2)c(N=Nc2ccc(Cl)cc2)c1=O | active: 2.91 µM
CC(C)CCN1CC(C(=O)NCc2ccccc2)CC1=O (stereo not drawn) | inconclusive: 18.4 µM [activator, single point]
Cc1ccc(-c2nc(CS(=O)(=O)CC(=O)N3CC(C)CC(C)C3)c(C)o2)cc1 (stereo not drawn) | inconclusive: 0.0052 µM [inhibitor, full curve, poor fit]
COc1ccc(Cc2nnc(SCC(=O)Nc3nc(C)cs3)o2)cc1 | inactive
O=C(NCc1ccccc1)c1ccc2nc(-c3ccco3)c(-c3ccco3)nc2c1 | inconclusive: 20.6 µM [inhibitor, partial curve, poor fit]
Cc1ccc(NC(=O)C(C)OC(=O)c2ccc(NC(=O)CC#N)cc2)cc1S(=O)(=O)N1CCOCC1 (stereo not drawn) | inactive
CC(=O)Nc1ccc(S(=O)(=O)NCCSCc2ccco2)cc1 | inactive
CC1(c2ccc([N+](=O)[O-])cc2)Nc2ccccc2S1 (stereo not drawn) | inconclusive: 20.6 µM [activator, partial curve]
O=C(Nc1cccc(-c2ccc3nncn3n2)c1)C(F)(F)F | inactive
N=c1c(C(=O)NCc2ccc(F)cc2)cc2c(=O)n3ccccc3nc2n1Cc1cccnc1 | inconclusive: 16.4 µM [inhibitor, partial curve]
COC(=O)c1ccc(OC(=O)c2ccc(OCc3c(C)noc3C)c(OC)c2)cc1 | inactive
C=CCn1c(SCCC(=O)O)nnc1-c1cccs1 | inconclusive: 25.9 µM [activator, partial curve, poor fit]
COc1cccc(N(C(=O)c2ccco2)c2nc(-c3sc(NC(=O)c4ccco4)nc3C)cs2)c1 | inconclusive: 2.91 µM [inhibitor, full curve]
